Measured values reported in patent US20220323444A1, “Methods of Treating Advanced Prostate Cancer” (The Medical College of Wisconsin, Inc., priority 2019, published 2022).
For some of these results: At least one structure is not confirmed: it was looked up by name or label, or the drawing left a doubt. Some results were stated once for a whole list of compounds, not compound by compound.

What was measured:
[1] = test system: AR mRNA levels in patient-derived clinical PCs; assay: AR mRNA in patient-derived PCs cultured ex vivo in 3D tumor explant cultures; assay type: cell-based, human; conditions: 7 days, three individual patients
[2] = test system: Androgen Independent Metastatic Prostate Cancer; conditions: 2009, PC patients, oral; cited from earlier work
[3] = test system: CWR22Rv1 PC cells; assay: Death / viability of CWR22Rv1 PC cells treated with Jak2 inhibitors; assay type: cell-based; conditions: CWR22Rv1, 300 nM, 3 days
Description: We tested whether Stat5 regulation of AR mRNA and protein levels provides an opportunity to control AR levels pharmacologically by inhibition of Jak2 signaling. […] Finally, to evaluate the effect of PAC and FED on PC cell viability, CWR22Rv1 cells were treated with increasing concentrations of PAC or FED for 3 days.

In the case of `O=P(O)(O)OC[C@H]1O[C@@H](n2cnc3c(NCc4ccccc4)ncnc32)[C@H](O)[C@@H]1O` [IST5-002], the “decrease of full-length AR and AR-V7 mRNA levels in clinical PCs ex vivo” value ([1]; IST5-002 12.5 μM) is reported as 40-50%.

In the case of `N#CC[C@H](C1CCCC1)n1cc(-c2ncnc3[nH]ccc23)cn1` [ruxolitinib], the clinical trial outcome [2] is given as “terminated early due to a lack of efficacy”.

For `C1=C/COCc2cc(ccc2OCCN2CCCC2)Nc2nccc(n2)-c2cccc(c2)COC/1` [pacritinib, (16E)-11-[2-(1-Pyrrolidinyl)ethoxy]-14,19-dioxa-5,7,26-triazatetracyclo[19.3.1.12,6.18,12]heptacosa-1(25),2(26),3,5,8,10,12(27),16,21,23-decaene], the “decrease of full-length AR and AR-V7 mRNA levels in clinical PCs ex vivo” value ([1]; PAC 1 μM) was 40-50% and the cells eliminated [3] was “more than 50%”.
